Source: PMC11372095
These are yes or no findings as the source states them, for the method shown. Binding seen in cells or lysates may run through a third protein. Some binding calls cover weakened binding; strength is not graded here.

Sequences of proteins named here, by UniProt entry; tags and fusion partners are left off. Residues count along the entry.
UniProt O00206, residues 24-839: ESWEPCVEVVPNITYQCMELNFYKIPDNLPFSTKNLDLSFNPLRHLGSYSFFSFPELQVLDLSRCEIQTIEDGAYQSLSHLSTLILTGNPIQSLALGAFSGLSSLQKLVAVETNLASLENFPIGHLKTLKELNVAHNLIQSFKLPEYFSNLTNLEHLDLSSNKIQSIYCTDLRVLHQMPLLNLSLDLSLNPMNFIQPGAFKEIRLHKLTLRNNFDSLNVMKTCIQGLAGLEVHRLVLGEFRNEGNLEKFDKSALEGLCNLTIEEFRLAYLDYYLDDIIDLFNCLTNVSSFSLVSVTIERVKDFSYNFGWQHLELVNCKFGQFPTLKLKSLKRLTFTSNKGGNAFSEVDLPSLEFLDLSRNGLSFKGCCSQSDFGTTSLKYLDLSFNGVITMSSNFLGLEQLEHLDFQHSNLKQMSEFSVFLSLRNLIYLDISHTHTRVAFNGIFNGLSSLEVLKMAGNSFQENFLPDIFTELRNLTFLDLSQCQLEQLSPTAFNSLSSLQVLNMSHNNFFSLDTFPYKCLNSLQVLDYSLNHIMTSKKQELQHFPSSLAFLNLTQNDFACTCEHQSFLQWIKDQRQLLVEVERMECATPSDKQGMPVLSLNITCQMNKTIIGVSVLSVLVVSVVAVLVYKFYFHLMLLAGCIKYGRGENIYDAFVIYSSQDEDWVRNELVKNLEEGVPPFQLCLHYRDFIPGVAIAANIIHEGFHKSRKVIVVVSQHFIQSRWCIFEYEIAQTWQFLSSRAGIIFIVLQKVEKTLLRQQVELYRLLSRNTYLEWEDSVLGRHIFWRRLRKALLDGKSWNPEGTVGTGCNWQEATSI

How the values were obtained:
[1] = molecular target: T1, recombinant human MD-1 (myeloid differentiation protein 1, lymphocyte antigen 86) (human) (UniProt O95711); assay: co-IP; human neutrophils incubated with recombinant human MD-1 (75 ng/mL) for 60 min at 37 °C, washed, lysed; anti-MD-1 antibody on Protein A magnetic beads, normal IgG as control; blot for TLR4; only the target purified
T1 sequence: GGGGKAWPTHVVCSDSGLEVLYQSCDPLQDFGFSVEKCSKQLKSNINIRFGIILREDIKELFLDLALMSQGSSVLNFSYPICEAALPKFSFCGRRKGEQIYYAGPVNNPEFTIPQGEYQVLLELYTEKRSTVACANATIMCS

[2] = molecular target: Toll-like receptor 4 (TLR4) on human peripheral blood neutrophils (human (endogenous in peripheral blood neutrophils)) (UniProt O00206); assay: proximity ligation; Duolink PLA on fixed, permeabilised neutrophils of healthy volunteers incubated with recombinant human MD-1 (50 or 75 ng/mL, or 75 ng/mL with 1 μM TAK-242) for 60 min at 37 °C; primary antibodies against MD-1 and TLR4; single antibodies as negative controls; only the binder purified
[3] = molecular target: Toll-like receptor 4 (TLR4) on human peripheral blood neutrophils (human (endogenous in peripheral blood neutrophils)) (UniProt O00206); assay: co-IP; human neutrophils incubated with recombinant human MD-1 (75 ng/mL) for 60 min at 37 °C, washed, lysed; anti-TLR4 antibody on Protein A magnetic beads, normal IgG as control; blot for MD-1; only the binder purified
[4] = molecular target: Toll-like receptor 4 (TLR4) on human peripheral blood neutrophils (human (endogenous in peripheral blood neutrophils)) (UniProt O00206); assay: proximity ligation; Duolink PLA on fixed, permeabilised, freshly isolated neutrophils of carotid plaque patients, no MD-1 added; primary antibodies against MD-1 and TLR4

“Toll-like receptor 4 (TLR4) on human peripheral blood neutrophils (from UniProt O00206 24-839)” was tested, and the binding [1] was “binds”.

B1: recombinant human MD-1 (myeloid differentiation protein 1, lymphocyte antigen 86) (protein, UniProt O95711 21-162)
chain: GGGGKAWPTHVVCSDSGLEVLYQSCDPLQDFGFSVEKCSKQLKSNINIRFGIILREDIKELFLDLALMSQGSSVLNFSYPICEAALPKFSFCGRRKGEQIYYAGPVNNPEFTIPQGEYQVLLELYTEKRSTVACANATIMCS
For B1, the binding [2] was “binds” and the binding [3] was “binds”.

B2: endogenous secreted MD-1 (LY86) of carotid plaque patients (protein, UniProt O95711 21-162)
chain: GGGGKAWPTHVVCSDSGLEVLYQSCDPLQDFGFSVEKCSKQLKSNINIRFGIILREDIKELFLDLALMSQGSSVLNFSYPICEAALPKFSFCGRRKGEQIYYAGPVNNPEFTIPQGEYQVLLELYTEKRSTVACANATIMCS
B2 was tested, and the binding [4] was “binds”.
